From PMC4852720
These are yes or no findings as the source states them, for the method shown. In cells and extracts the contact can be indirect. These calls come from enrichment with a bait or labelling near it, and not all partners need be listed.

By UniProt entry, the sequences of proteins in these tests, tags left out.
UniProt Q96GX5: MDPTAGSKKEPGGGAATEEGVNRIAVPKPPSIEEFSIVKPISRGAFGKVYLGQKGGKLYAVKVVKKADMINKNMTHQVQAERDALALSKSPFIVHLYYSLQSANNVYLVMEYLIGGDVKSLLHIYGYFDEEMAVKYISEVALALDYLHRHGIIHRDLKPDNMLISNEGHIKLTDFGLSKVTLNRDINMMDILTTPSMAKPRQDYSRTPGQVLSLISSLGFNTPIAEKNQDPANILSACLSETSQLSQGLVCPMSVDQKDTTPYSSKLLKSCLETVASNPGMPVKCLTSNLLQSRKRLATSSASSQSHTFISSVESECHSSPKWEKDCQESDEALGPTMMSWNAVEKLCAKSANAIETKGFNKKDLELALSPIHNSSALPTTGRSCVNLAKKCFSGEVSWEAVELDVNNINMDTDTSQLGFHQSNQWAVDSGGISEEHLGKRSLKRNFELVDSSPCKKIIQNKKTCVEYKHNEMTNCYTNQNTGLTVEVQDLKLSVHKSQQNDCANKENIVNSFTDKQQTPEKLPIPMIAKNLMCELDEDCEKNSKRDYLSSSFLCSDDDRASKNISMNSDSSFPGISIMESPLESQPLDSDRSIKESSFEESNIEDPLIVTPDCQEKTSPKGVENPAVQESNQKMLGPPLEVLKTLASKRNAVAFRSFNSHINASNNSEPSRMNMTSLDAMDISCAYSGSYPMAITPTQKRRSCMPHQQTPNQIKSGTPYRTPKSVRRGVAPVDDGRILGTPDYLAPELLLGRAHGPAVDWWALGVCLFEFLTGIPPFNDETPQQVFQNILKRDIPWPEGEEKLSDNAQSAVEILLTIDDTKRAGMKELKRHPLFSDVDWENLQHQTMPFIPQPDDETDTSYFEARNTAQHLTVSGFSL
UniProt P62136: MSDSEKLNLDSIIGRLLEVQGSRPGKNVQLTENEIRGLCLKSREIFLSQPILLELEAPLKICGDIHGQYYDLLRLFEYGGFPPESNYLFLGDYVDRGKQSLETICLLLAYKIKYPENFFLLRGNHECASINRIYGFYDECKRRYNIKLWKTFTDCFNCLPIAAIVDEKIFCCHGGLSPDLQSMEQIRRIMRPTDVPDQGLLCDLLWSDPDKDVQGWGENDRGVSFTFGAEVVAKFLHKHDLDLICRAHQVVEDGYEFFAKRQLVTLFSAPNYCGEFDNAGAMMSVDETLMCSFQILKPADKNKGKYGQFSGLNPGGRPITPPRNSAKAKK
UniProt P62140: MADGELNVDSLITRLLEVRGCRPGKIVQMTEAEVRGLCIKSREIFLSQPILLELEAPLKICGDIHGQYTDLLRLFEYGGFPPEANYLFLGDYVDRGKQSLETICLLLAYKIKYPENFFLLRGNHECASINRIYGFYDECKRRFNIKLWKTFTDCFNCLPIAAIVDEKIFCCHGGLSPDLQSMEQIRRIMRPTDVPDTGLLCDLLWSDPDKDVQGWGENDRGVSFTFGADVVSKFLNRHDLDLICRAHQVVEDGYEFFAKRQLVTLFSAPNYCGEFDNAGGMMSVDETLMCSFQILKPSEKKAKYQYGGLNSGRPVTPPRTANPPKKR
UniProt P36873: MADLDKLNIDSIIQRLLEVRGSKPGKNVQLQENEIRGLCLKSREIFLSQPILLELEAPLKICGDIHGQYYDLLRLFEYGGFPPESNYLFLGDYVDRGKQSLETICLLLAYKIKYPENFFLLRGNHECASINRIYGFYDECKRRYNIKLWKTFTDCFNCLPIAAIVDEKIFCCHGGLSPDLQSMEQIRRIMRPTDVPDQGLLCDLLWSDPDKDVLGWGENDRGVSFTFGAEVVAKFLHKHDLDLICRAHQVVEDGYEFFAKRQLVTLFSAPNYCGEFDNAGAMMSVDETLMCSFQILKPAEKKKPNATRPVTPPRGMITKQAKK
UniProt P30153: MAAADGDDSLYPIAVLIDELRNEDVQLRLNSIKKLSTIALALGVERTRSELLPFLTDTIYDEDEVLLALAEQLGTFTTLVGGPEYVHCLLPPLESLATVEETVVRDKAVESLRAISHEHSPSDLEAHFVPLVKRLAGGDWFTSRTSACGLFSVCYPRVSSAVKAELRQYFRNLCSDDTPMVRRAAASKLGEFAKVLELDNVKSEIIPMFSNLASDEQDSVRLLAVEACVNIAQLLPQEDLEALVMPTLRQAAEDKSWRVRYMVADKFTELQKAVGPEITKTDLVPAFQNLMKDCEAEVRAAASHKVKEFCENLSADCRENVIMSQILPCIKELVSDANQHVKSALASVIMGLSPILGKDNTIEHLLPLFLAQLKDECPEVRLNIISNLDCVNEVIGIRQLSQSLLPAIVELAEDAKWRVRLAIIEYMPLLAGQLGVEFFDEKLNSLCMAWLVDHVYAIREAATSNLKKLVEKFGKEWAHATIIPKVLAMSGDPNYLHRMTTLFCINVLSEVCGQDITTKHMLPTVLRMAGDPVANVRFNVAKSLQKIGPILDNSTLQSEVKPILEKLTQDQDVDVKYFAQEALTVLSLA

Molecular target: microtubule-associated serine-threonine-like kinase (MASTL) (human (endogenous in HeLa)) (UniProt Q96GX5)
Experiment: affinity purification with mass spectrometry; endogenous MASTL immunoprecipitated from SILAC-labelled HeLa cells ('light': prometaphase arrest in nocodazole; 'heavy': RO3306 for 20 min), mixed 1:1, gel separation, in-gel digest, LC-MS/MS, 1% false discovery rate

Row | binding | Substance
1 | binds | catalytic α subunit of PP1 (PPP1CA) (from UniProt P62136 1-330) (enzyme)
2 | binds | catalytic β subunit of PP1 (PPP1CB) (from UniProt P62140 1-327) (enzyme)
3 | binds | catalytic γ subunit of PP1 (PPP1CC) (from UniProt P36873 1-323) (enzyme)
4 | binds | scaffolding A subunit of PP2A (PPP2R1A) (from UniProt P30153 1-589)
